# Test results from the supplement of paper PMC8728848.
# This is one part of the list.
# B1: TAL6-4LysM (Trichoderma atroviride) (protein)
# chain: AADSIPSISPTGIITPTPTQSGMVSNCNKFYDVHSNDGCSAIASSQHVDLSSLYKWNPAIKTDCSGLQASVYVCIGILTTSMSTTSKLPTTTSKPSTTSKPPTGITTPTPTQSGMVKNCNKFYDVHSGDGCSAIASSQKVNLSSFYLWNPAVKTDCSGLQASVFVCIGTLTTSMSTTTSKLPTTTSKPSTTSKPPTGIITPTPTQNGMVKNCNKFYDVHSGDGCSAIASSQKVNLSSFYLWNPAVKTDCSGLQASVFVCVGTATTTTAAGITTPTPTQSGMVSGCNKFYDVHAGDGCSAIASSQKIALSSLYKWNPAVKTDCSGLQASVYICIGVGNAAAARVTGALEQKLISEEDLNSAVDHHHHHH
# Legend:
# Assay in all cases: glycan array binding signal (z-score within array); higher = stronger binding
# Settings in all cases: glycan notation: IUPAC condensed, linker removed
# [1] = biological target: Gal6S(b1-4)Glc6S
# Procedure, shortened: (§1)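 Columns mapping to the same glycan were averaged after glycan names were converted to IUPAC-condensed notation. The data come from 3228 arrays in the Consortium for Functional Glycomics database, limited to those with an available protein sequence. Binding is reported as a within-array Z-score averaged across arrays of one protein sequence and across linkers.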
# [2] = biological target: Gal6S(b1-4)GlcNAc
# Procedure, shortened: as §1
# [3] = biological target: Gal6S(b1-4)GlcNAc6S
# Procedure, shortened: as §1
# [4] = biological target: GalNAc(a1-3)Gal
# Procedure, shortened: as §1
# [5] = biological target: GalNAc(a1-3)GalNAc
# Procedure, shortened: as §1
# [6] = biological target: GalNAc(a1-3)GalNAc(b1-3)Gal(a1-4)Gal(b1-4)Glc
# Procedure, shortened: as §1
# [7] = biological target: GalNAc(a1-3)GalNAc(b1-3)Gal(a1-4)Gal(b1-4)GlcNAc
# Procedure, shortened: as §1
# [8] = biological target: GalNAc(b1-3)Gal
# Procedure, shortened: as §1
# [9] = biological target: GalNAc(b1-3)Gal(a1-4)Gal(b1-4)GlcNAc
# Procedure, shortened: as §1
# [10] = biological target: GalNAc(b1-3)Gal(a1-4)Gal(b1-4)GlcNAc(b1-3)Gal(b1-4)Glc
# Procedure, shortened: as §1
# [11] = biological target: GalNAc(b1-3)Gal(a1-6)Gal(b1-4)Glc
# Procedure, shortened: as §1
# [12] = biological target: GalNAc(b1-3)GalNAc
# Procedure, shortened: as §1
# [13] = biological target: GalNAc(b1-3)GlcNAc
# Procedure, shortened: as §1
# [14] = biological target: GalNAc(b1-4)Gal(b1-4)Glc
# Procedure, shortened: as §1
# [15] = biological target: GalNAc(b1-4)GlcNAc
# Procedure, shortened: as §1
# [16] = biological target: GalNAc(b1-4)GlcNAc(b1-2)Man
# Procedure, shortened: as §1
# [17] = biological target: GalNAc(b1-4)GlcNAc(b1-2)Man(a1-3)[GalNAc(b1-4)GlcNAc(b1-2)Man(a1-6)]Man(b1-4)GlcNAc(b1-4)GlcNAc
# Procedure, shortened: as §1
# [18] = biological target: GalNAc(b1-4)GlcNAc(b1-3)GalNAc(b1-4)GlcNAc
# Procedure, shortened: as §1
# [19] = biological target: GalNAc(b1-4)GlcNAc6S
# Procedure, shortened: as §1
# [20] = biological target: GalNAc(b1-6)GalNAc
# Procedure, shortened: as §1
# [21] = biological target: GalNAc3S(b1-4)GlcNAc
# Procedure, shortened: as §1
# [22] = biological target: GalNAc3S(b1-4)GlcNAc3S
# Procedure, shortened: as §1
# [23] = biological target: GalNAc3S(b1-4)[Fuc(a1-3)]GlcNAc
# Procedure, shortened: as §1
# [24] = biological target: GalNAc4S6S(b1-4)GlcNAc
# Procedure, shortened: as §1
# [25] = biological target: GalNAc6S(b1-4)GlcNAc
# Procedure, shortened: as §1
# [26] = biological target: Glc(a1-4)Glc
# Procedure, shortened: as §1
# [27] = biological target: Glc(a1-4)Glc(a1-4)Glc(a1-4)Glc
# Procedure, shortened: as §1
# [28] = biological target: Glc(a1-6)Glc(a1-6)Glc
# Procedure, shortened: as §1
# [29] = biological target: Glc(a1-6)Glc(a1-6)Glc(a1-6)Glc
# Procedure, shortened: as §1
# [30] = biological target: Glc(b1-4)Glc
# Procedure, shortened: as §1
# [31] = biological target: Glc(b1-6)Glc
# Procedure, shortened: as §1
# [32] = biological target: GlcA(b1-3)Gal
# Procedure, shortened: as §1
# [33] = biological target: GlcA(b1-3)GlcNAc
# Procedure, shortened: as §1
# [34] = biological target: GlcA(b1-6)Gal
# Procedure, shortened: as §1
# [35] = biological target: GlcA3S(b1-3)Gal(b1-4)GlcNAc(b1-2)Man
# Procedure, shortened: as §1
# [36] = biological target: GlcA3S(b1-3)Gal(b1-4)GlcNAc(b1-3)Gal(b1-4)Glc
# Procedure, shortened: as §1
# [37] = biological target: GlcNAc(a1-3)Gal(b1-4)GlcNAc
# Procedure, shortened: as §1
binder,measurement,setting,value
B1,glycan array binding signal (z-score),[1],2.23
same,glycan array binding signal (z-score),[2],0.994
same,glycan array binding signal (z-score),[3],-0.398
same,glycan array binding signal (z-score),[4],0.613
same,glycan array binding signal (z-score),[5],0.657
same,glycan array binding signal (z-score),[6],0.084
same,glycan array binding signal (z-score),[7],0.071
same,glycan array binding signal (z-score),[8],-0.639
same,glycan array binding signal (z-score),[9],0.963
same,glycan array binding signal (z-score),[10],0.34
same,glycan array binding signal (z-score),[11],-0.436
same,glycan array binding signal (z-score),[12],1.31
same,glycan array binding signal (z-score),[13],-0.707
same,glycan array binding signal (z-score),[14],0.01
same,glycan array binding signal (z-score),[15],1.41
same,glycan array binding signal (z-score),[16],1.31
same,glycan array binding signal (z-score),[17],-0.647
same,glycan array binding signal (z-score),[18],-0.378
same,glycan array binding signal (z-score),[19],0.091
same,glycan array binding signal (z-score),[20],-1.1
same,glycan array binding signal (z-score),[21],-0.088
same,glycan array binding signal (z-score),[22],-1.07
same,glycan array binding signal (z-score),[23],-0.53
same,glycan array binding signal (z-score),[24],1.16
same,glycan array binding signal (z-score),[25],-0.544
same,glycan array binding signal (z-score),[26],-0.584
same,glycan array binding signal (z-score),[27],-0.205
same,glycan array binding signal (z-score),[28],0.264
same,glycan array binding signal (z-score),[29],-2.01
same,glycan array binding signal (z-score),[30],-1.29
same,glycan array binding signal (z-score),[31],-1.85
same,glycan array binding signal (z-score),[32],-0.253
same,glycan array binding signal (z-score),[33],-0.371
same,glycan array binding signal (z-score),[34],-0.73
same,glycan array binding signal (z-score),[35],-1.83
same,glycan array binding signal (z-score),[36],1.02
same,glycan array binding signal (z-score),[37],1.16

# Fetched one by one from the entries so far, 2 records:
binder,measurement,setting,value
B1,glycan array binding signal (z-score),[2],0.994
same,glycan array binding signal (z-score),[19],0.091
